# According to the supplement of paper PMC12595434, “Development of retinoid nuclear receptor pathway antagonists through targeting aldehyde dehydrogenase 1A3” (iScience, 2025):
# Sequences of proteins named here, by UniProt entry; tags and fusion partners are left off. A change or cut given only in a name is not applied to a line headed by its entry.
# UniProt Q16363: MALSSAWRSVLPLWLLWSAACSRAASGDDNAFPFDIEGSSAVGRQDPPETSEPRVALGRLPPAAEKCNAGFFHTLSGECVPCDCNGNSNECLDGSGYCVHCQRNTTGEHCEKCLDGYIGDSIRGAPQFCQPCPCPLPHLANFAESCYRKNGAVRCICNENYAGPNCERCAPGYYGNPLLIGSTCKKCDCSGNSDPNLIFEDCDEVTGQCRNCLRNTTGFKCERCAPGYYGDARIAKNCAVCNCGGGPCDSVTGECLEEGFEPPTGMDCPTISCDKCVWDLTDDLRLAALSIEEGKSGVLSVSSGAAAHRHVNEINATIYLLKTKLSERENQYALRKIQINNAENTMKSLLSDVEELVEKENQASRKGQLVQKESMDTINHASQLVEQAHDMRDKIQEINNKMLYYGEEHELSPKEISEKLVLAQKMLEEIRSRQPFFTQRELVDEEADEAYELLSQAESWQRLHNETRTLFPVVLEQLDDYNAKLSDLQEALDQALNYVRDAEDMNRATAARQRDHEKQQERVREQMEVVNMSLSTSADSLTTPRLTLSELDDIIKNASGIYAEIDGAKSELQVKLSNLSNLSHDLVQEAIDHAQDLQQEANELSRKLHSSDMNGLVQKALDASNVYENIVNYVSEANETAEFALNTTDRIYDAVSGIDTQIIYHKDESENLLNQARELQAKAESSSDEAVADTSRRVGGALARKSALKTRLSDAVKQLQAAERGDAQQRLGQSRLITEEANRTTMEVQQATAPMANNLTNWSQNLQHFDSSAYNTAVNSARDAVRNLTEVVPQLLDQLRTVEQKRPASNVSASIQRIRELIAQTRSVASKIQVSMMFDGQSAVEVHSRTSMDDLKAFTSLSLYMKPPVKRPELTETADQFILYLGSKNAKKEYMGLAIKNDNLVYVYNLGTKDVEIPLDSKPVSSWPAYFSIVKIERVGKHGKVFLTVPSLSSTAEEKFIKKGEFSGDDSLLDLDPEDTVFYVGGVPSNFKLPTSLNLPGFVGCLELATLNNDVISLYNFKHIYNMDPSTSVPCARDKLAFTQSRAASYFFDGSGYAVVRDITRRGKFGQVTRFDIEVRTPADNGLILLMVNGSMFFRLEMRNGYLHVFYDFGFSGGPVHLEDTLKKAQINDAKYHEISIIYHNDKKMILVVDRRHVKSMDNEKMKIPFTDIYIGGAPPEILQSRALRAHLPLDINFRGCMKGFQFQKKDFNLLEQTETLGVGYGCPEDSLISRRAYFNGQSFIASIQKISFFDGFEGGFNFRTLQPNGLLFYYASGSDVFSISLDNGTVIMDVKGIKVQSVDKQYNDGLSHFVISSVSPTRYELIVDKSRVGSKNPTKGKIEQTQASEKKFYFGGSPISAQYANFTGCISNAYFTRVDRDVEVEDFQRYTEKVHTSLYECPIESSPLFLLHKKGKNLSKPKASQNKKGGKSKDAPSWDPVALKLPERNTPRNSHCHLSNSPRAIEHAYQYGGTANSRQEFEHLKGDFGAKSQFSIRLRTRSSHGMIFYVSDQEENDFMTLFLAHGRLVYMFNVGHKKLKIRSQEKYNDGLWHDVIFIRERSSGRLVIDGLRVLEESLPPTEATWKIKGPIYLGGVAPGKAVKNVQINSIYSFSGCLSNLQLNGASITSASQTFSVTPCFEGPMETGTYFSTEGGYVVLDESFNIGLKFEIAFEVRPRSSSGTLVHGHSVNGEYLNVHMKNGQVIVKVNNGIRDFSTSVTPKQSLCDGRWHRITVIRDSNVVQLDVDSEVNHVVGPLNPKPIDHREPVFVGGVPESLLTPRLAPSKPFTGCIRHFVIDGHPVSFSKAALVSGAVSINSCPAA
# UniProt Q15287: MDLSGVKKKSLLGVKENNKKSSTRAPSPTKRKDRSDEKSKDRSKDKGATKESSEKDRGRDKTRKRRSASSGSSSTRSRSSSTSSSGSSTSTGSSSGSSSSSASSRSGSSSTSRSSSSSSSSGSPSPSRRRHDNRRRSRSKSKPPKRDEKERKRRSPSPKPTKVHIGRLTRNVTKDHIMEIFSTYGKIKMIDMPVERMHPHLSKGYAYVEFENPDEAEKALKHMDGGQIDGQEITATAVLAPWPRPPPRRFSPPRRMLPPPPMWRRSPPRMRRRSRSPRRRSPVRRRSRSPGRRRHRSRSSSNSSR
# UniProt Q15800: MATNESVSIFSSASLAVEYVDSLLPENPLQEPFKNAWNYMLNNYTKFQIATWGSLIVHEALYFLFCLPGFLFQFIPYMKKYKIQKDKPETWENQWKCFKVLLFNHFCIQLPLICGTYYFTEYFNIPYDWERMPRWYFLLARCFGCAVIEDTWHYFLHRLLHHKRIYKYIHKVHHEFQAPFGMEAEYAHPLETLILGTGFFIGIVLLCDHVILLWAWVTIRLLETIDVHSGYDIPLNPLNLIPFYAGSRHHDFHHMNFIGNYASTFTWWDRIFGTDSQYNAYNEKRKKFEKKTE
# UniProt Q15418, whole entry: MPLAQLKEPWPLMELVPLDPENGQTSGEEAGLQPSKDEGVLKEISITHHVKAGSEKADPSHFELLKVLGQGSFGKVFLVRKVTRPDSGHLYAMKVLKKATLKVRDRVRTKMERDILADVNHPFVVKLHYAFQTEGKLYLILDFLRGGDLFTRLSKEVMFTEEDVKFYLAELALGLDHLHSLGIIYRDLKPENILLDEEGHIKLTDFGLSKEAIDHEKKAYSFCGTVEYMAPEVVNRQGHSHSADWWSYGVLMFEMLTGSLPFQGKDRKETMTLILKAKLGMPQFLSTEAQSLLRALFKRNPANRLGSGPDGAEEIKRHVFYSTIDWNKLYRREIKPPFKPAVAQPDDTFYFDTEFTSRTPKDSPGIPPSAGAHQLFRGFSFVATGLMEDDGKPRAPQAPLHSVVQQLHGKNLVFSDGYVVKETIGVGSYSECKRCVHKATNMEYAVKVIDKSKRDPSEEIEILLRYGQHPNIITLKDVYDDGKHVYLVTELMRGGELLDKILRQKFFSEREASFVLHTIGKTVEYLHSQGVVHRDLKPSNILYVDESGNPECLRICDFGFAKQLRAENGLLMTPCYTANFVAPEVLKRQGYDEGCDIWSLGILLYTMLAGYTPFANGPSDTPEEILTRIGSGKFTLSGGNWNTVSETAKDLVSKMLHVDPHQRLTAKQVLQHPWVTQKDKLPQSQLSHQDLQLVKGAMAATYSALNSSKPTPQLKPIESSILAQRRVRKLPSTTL
# UniProt Q16877: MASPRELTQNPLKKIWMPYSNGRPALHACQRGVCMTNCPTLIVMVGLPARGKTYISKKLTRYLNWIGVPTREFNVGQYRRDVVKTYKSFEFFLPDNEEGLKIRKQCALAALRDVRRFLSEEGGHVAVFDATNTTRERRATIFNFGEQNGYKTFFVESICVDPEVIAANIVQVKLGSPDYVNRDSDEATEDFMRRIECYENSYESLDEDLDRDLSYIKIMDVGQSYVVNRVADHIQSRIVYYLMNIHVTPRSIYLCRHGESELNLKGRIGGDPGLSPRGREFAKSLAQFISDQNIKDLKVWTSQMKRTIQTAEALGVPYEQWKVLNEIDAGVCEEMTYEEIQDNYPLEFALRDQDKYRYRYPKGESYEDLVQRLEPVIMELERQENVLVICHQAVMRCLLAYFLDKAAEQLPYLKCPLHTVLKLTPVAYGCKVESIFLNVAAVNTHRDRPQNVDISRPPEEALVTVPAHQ
# UniProt Q16831: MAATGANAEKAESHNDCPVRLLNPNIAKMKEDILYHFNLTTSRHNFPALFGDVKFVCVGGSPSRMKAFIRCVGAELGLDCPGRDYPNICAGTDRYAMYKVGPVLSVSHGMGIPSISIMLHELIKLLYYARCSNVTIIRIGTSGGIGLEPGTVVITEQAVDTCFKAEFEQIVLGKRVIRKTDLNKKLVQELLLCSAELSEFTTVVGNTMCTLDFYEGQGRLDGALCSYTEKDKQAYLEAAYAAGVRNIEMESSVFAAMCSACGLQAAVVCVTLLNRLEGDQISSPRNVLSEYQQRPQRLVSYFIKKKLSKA
# UniProt Q4G0J3: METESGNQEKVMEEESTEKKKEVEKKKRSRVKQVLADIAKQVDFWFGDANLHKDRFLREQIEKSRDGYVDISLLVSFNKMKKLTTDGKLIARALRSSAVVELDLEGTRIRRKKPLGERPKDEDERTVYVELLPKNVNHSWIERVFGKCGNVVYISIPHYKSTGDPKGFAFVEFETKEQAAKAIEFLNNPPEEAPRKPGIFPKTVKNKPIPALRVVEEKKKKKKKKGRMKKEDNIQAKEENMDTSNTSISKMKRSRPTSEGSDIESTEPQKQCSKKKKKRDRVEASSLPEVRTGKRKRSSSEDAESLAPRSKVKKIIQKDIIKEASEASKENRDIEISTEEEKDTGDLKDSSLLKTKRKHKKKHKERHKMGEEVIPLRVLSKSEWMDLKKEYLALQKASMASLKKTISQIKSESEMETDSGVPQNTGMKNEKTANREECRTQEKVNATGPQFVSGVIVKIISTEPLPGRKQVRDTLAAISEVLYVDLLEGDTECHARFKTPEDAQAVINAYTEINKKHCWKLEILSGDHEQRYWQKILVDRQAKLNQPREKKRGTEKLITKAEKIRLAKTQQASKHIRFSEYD
# UniProt Q17R31: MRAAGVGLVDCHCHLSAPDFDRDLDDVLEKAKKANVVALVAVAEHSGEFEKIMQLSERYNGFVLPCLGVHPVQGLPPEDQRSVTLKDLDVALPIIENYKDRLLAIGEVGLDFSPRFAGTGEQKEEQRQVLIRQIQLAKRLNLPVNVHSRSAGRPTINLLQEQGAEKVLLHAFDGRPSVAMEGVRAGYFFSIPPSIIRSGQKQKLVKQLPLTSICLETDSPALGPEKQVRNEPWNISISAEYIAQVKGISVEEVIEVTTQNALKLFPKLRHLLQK
# UniProt Q53SF7, whole entry: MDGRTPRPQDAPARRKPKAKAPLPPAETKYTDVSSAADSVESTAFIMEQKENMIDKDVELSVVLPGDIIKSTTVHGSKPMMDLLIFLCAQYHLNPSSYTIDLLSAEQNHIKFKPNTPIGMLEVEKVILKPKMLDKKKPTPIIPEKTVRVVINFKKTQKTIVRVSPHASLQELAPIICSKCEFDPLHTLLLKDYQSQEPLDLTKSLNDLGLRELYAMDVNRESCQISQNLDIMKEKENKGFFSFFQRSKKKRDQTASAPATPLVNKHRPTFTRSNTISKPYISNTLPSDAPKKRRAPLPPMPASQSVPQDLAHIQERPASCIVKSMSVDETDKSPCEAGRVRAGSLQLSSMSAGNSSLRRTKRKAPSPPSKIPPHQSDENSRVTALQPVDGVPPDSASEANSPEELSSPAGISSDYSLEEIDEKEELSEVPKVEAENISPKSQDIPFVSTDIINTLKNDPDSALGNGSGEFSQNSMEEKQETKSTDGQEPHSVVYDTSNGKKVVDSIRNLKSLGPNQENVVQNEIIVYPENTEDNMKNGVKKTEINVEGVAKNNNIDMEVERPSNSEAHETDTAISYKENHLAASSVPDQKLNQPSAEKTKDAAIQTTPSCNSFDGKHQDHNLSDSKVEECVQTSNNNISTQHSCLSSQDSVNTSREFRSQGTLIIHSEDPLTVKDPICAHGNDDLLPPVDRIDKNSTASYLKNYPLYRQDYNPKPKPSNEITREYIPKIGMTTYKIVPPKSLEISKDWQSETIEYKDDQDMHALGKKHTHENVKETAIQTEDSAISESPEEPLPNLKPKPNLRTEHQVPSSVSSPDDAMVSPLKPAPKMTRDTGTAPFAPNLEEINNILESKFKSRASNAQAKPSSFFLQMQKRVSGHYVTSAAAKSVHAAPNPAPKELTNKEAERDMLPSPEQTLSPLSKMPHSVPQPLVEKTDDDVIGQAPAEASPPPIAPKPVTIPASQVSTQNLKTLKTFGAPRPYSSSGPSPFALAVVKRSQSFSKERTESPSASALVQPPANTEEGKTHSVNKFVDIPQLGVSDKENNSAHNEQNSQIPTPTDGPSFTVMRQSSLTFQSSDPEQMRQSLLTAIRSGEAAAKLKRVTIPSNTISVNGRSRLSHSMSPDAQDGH
# UniProt Q15773: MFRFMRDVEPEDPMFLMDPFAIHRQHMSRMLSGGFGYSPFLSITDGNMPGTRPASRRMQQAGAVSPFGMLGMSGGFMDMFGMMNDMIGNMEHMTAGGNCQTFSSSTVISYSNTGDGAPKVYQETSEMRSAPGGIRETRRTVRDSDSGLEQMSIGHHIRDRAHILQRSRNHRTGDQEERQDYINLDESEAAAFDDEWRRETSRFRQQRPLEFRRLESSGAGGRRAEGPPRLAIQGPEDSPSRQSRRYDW
# UniProt Q3ZCQ8: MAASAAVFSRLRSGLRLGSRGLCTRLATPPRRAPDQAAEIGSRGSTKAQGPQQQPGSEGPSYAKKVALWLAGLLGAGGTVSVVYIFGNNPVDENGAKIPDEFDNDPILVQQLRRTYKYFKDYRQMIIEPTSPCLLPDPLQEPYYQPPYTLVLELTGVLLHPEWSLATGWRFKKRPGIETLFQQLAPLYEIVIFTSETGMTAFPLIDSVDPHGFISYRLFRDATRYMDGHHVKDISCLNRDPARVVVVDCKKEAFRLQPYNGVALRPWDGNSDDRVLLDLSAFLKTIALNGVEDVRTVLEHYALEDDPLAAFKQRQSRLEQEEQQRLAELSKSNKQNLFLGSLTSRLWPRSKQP
# This is one part of the list. The data scatter; read single values as rough.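 Many melting curves are irregular; where none melted, Tm was taken as 64 °C.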
# Compound: CCc1cnccc1C(=O)Nc1cc2c(cc1F)NC(=O)CC2
# Experiment: melting temperature shift (DMSO Tm minus MBE1-treated Tm) in cellular thermal proteome profiling; higher = less thermal stabilization by MBE1 (negative = stabilized by MBE1)
# Settings: A375
Target,melting temperature shift (MBE1 concentration: 100 nM) [°C],melting temperature shift (MBE1 concentration: 1 uM) [°C]
UniProt Q16363,0.125,-0.174
RNPS1 (UniProt Q15287),-0.434,-1.58
MSMO1 (UniProt Q15800),-1.75,-4.19
FSCN1 (UniProt Q16658),-0.597,-0.402
ERCC6L (UniProt Q2NKX8),-0.996,-0.167
DDR2 (UniProt Q16832),2.37,-0.647
UniProt Q53S08,-1.98,-1.8
TAF7 (UniProt Q15545),-1.57,-0.879
CTU2 (UniProt Q2VPK5),-0.416,0.482
SYPL1 (UniProt Q16563),3.88,2.58
SURF1 (UniProt Q15526),-0.402,0.501
RPS6KA1 (UniProt Q15418),0.00611,-0.354
NSDHL (UniProt Q15738),-0.376,0.759
CCDC6 (UniProt Q16204),-1.86,-0.181
MEA1 (UniProt Q16626),-2.55,-1.78
UniProt Q17RY0,2.34,0.397
ARID4B (UniProt Q4LE39),-0.275,-0.102
PAN3 (UniProt Q58A45),-0.216,-0.282
SMU1 (UniProt Q2TAY7),0.879,0.666
USP39 (UniProt Q53GS9),0.0305,-0.0427
MTFR1 (UniProt Q15390),0.771,0.513
CYP51A1 (UniProt Q16850),-1.15,-0.687
EAPP (UniProt Q56P03),0.134,-0.0244
UniProt Q2LD37,0.0469,-5.25
TRAM1 (UniProt Q15629),0.696,0.501

# Shown tab-delimited: part of the list above
Target	melting temperature shift (MBE1 concentration: 100 nM) [°C]	melting temperature shift (MBE1 concentration: 1 uM) [°C]
USP39 (UniProt Q53GS9)	0.0305	-0.0427
MTFR1 (UniProt Q15390)	0.771	0.513

# (continued)

Target,melting temperature shift (MBE1 concentration: 100 nM) [°C],melting temperature shift (MBE1 concentration: 1 uM) [°C]
UniProt Q49MG5,-1.94,1.81
SLC9A3R2 (UniProt Q15599),-7.7,-0.836
DHCR24 (UniProt Q15392),1.03,1.11
UniProt Q53GL7,-0.554,-0.771
UniProt Q16877,1.11,0.116
UniProt Q2PPJ7,-0.696,-0.55
PON2 (UniProt Q15165),-0.5,0.305
UPP1 (UniProt Q16831),-0.462,-1.36
LARP7 (UniProt Q4G0J3),0.446,-0.611
PDS5A (UniProt Q29RF7),-0.16,-0.102
NADK2 (UniProt Q4G0N4),-0.421,0.983
PGS1 (UniProt Q32NB8),0.644,0.482
UniProt Q15113,-0.751,-0.141
UniProt Q1L5Z9,-0.263,-0.878
ACAP2 (UniProt Q15057),0.134,-0.421
TRIP4 (UniProt Q15650),0.451,0.795
HSD17B12 (UniProt Q53GQ0),-1.2,-0.389
UniProt Q17R31,-1.1,0.459
LRRC41 (UniProt Q15345),-0.95,-0.128
TSSC1 (UniProt Q53HC9),-0.805,0.0402
COBLL1 (UniProt Q53SF7),0.0183,0.745
UniProt Q15544,1.97,-1.18
UniProt Q15773,-0.41,-0.404
EIF4H (UniProt Q15056),0.455,0.174
TIMM50 (UniProt Q3ZCQ8),-0.733,0.263
